Reference: patent US9067857B2, “Fluorine-containing aromatic compound and manufacturing method therefor” (Asahi Glass Company, Limited, priority 2012, dated 2015)

Assay: Semiconductor material and mobility evaluation (top-contact bottom-gate FET element)
Conditions: vacuum-deposited 70 nm film, FET evaluated under vacuum

FC(F)(F)C(F)(F)C(F)(F)C(F)(F)C(F)(F)C(F)(F)c1c2ccccc2c(C(F)(F)C(F)(F)C(F)(F)C(F)(F)C(F)(F)C(F)(F)F)c2ccccc12 [Compound (e), 9,10-bis(perfluorohexyl)anthracene]
Transistor conduction type of FET element: n-type transistor element
Carrier mobility (field effect mobility) (saturated region of current-voltage properties): 9.1×10^−5 cm^2/V·s
